From paper PMC6358775, “Elucidation of Vasodilation Response and Structure Activity Relationships of N^2,N^4-Disubstituted Quinazoline 2,4-Diamines in a Rat Pulmonary Artery Model” (Molecules, 2019)
Several values for one entry are separate records, joined by “and”; a condition that tells them apart may be missing. Equal entries are not always repeated.

Test system: A549 cells
Assay: MTT cytotoxicity assay in A549 cells
Format: cell-based, human
Settings: for SI (PDE-5 vs. A549): selectivity: A549 IC50 over PDE-5 IC50, fold, value in brackets; for SI E+ vs. A549: selectivity: A549 IC50 over vasodilation E+ EC50, fold
Description: A 3-[4,5-dimehyl-2-thiazolyl]-2,5-diphenyl-2H-tetrazoliumbromide (MTT) assay was utilized to assess the concentration-response curves for quinazoline analogues as previously reported. A549 cells (ATCC CCL-185, human alveolar basal epithelial cell line) were used to account for the general cytotoxicity of compounds. Cells were cultured in DMEM medium containing fetal bovine serum (FBS; 10%), penicillin (10 U/mL), and streptomycin (100 U/mL). The temperature was maintained at 37 °C with 5% CO2. Cells were seeded for 16–18 h in DMEM and incubated for 72 h with the test compounds. After incubation, MTT (5 mg/mL in normal saline) was added with DMEM and incubated for 3 h. Careful decantation of the medium and addition of DMSO (50 µL) was done. Absorbance values were recorded at 570 nm after 5 min mechanical shaking of the microplate (Sunrise microplate reader, Tecan).
The activity was presented as the inhibitory concentration required to produce a 50% response (IC50). Prism 6.0 GraphPad Software Inc., (San Diego, CA, USA) was utilized for data fitting. 0.5% DMSO was used as the negative control.

Row | Structure (SMILES) | SI (PDE-5 vs. A549) | SI E+ vs. A549
1 | NS(=O)(=O)c1cccc(Nc2nc(NCc3ccco3)c3ccccc3n2)c1 [Compound 13] | 224.3 | 4.1
2 | NS(=O)(=O)c1ccc(Nc2nc(NCc3ccccc3)c3ccccc3n2)cc1 [Compound 4] | 24.2 | 7.3
3 | CN(C)S(=O)(=O)c1ccc(Nc2nc(NCc3ccccc3)c3ccccc3n2)cc1 [Compound 3] | 14.5 | 5.1
4 | NS(=O)(=O)c1cccc(Nc2nc(NCc3cccs3)c3ccccc3n2)c1 [Compound 11] | 167.1 | 6.6
5 | NS(=O)(=O)c1cccc(Nc2nc(NCc3ccccc3)c3ccccc3n2)c1 [Compound 5] | 159.3 | 6.8
6 | c1ccc(CNc2nc(Nc3ccc(N4CCOCC4)cc3)nc3ccccc23)cc1 [Compound 2] | 22.8 | 2.4
7 | NC(=O)c1ccc(Nc2nc(NCc3cccs3)c3ccccc3n2)cc1 [Compound 10] | 157.2 | 19.4
8 | c1ccc(CNc2nc(Nc3ccccc3)nc3ccccc23)cc1 [Compound 1] | 8.9 | 2.2
9 | O=C(Nc1ccccc1)Nc1ccc(Nc2nc(NCc3cccs3)c3ccccc3n2)cc1 [Compound 7] | 3.7 | 0.7
10 | Clc1cnc(Nc2ccccc2)nc1NCc1ccccc1 [Compound 14] | > 10 | > 22.3
11 | NS(=O)(=O)c1ccc(Nc2nc(NCc3cccs3)c3ccccc3n2)cc1 [Compound 9] | 148.5 | ~ 32 and 31.7
12 | c1csc(CNc2nc(Nc3ccc(N4CCOCC4)cc3)nc3ccccc23)c1 [Compound 8] | 22.3 | 19.6
13 | NC(=O)c1cccc(Nc2nc(NCc3cccs3)c3ccccc3n2)c1 [Compound 12] | 53.2 | 3.7
14 | c1ccc(Nc2nc(NCc3cccs3)c3ccccc3n2)cc1 [Compound 6] | 19.3 | 2.9
